Test results from publication PMC5818915.
These are yes or no findings as the source states them, for the method shown. In cells and extracts the contact can be indirect. Some results given as binding are weak or reduced against the parent protein; the word gives no strength. Tags and fused reporters may be left off the sequences shown.

Sequences of proteins named here, by UniProt entry; tags and fusion partners are left off.
UniProt P19263: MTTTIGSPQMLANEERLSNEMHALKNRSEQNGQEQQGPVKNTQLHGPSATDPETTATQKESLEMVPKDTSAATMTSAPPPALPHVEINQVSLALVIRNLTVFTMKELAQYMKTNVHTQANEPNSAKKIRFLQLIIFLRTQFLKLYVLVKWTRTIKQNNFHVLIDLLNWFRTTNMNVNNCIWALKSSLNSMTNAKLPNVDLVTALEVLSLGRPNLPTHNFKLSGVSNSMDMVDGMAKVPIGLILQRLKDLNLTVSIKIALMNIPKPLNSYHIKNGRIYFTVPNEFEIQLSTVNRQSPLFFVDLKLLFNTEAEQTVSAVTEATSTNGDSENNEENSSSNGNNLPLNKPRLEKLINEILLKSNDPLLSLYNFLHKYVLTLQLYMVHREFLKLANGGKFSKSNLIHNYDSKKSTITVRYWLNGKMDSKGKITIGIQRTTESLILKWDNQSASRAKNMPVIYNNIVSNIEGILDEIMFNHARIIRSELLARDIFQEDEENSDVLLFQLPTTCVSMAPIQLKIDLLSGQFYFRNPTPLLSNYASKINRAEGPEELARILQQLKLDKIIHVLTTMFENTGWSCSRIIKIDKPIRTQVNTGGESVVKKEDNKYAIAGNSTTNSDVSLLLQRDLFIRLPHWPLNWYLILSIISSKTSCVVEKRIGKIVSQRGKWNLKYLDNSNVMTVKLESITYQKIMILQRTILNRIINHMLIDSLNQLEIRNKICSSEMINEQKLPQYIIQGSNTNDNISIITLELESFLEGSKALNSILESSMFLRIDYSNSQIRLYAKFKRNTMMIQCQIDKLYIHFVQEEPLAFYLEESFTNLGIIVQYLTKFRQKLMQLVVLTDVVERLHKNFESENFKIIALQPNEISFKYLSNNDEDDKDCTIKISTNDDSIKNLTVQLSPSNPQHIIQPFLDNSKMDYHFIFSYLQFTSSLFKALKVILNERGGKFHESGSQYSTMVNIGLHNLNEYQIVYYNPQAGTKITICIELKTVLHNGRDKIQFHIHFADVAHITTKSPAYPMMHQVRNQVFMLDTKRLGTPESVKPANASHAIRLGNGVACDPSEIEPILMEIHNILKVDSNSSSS

Target: Med14 (Rgr1/Med14), subunit of the Mediator complex (S. cerevisiae (endogenous in yeast)) (UniProt P19263)
Test: co-IP; WCEs of yeast strains expressing LexA-Med6p derivatives, DEAE column fractionation to enrich Pol II holoenzyme; immunopurified with beads-coupled anti-Med14 antibody; western with anti-LexA and anti-Med14

binding: binds
B1: LexA-fused wild-type Med6p (S. cerevisiae) (protein, UniProt P38782 1-295)
chain: MNVTPLDELQWKSPEWIQVFGLRTENVLDYFAESPFFDKTSNNQVIKMQRQFSQLNDPNAAVNMTQNIMTLPDGKNGNLEEEFAYVDPARRQILFKYPMYMQLEEELMKLDGTEYVLSSVREPDFWVIRKQRRTNNSGVGSAKGPEIIPLQDYYIIGANIYQSPTIFKIVQSRLMSTSYHLNSTLESLYDLIEFQPSQGVHYKVPTDTSTTATAATNGNNAGGGSNKSSVRPTGGANMATVPSTTNVNMTVNTMGTGGQTIDNGTGRTGNGNMGITTEMLDKLMVTSIRSTPNYI
